Test results reported in patent US20100036106.
Construct, isoform or probe ends are uncertain for at least one entry.

Sequences of proteins named here, by UniProt entry; tags and fusion partners are left off. Residues count along the entry.
UniProt P08515, 2-218: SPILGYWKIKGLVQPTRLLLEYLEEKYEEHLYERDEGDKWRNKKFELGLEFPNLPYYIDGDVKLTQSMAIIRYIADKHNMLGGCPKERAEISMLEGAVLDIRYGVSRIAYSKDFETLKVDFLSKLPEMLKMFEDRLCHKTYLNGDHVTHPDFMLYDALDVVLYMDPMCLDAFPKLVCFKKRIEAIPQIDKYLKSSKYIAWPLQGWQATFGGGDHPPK

What follows are sequences tested against GST fusion protein (GST N-terminal fusion partner with unspecified protein of interest) (Schistosoma japonicum) (UniProt P08515) (assay: SELEX). Details: purified recombinant protein.
“GGUAGAUACGAUGGAUACCGAAAAAUUAGUGUCGUUGACUGCAACAUGACGCGCAGCCAA [No. 26 clone RNA aptamer (sequence III)]” was tested, and the selection result was “selected”. In the case of “GGUAGAUACGAUGGACUAACUGCGCAAAUUACUCGUAUUAGCCGACAUGACGCGCAGCCAA [No. 5 clone RNA aptamer (sequence II)]”, the selection result is reported as “selected”. In the case of “GGUAGAUACGAUGGAUGGUUGUGUAAAGGUGGUCGUAUCCGCCGACAUGACGCGCAGCCAA [No. 3 clone RNA aptamer (sequence I)]”, the selection result is reported as “selected”.
